Test results: article PMC2685736, “Conservation of a conformational switch in RadA recombinase from Methanococcus maripaludis” (Acta Crystallographica Section D: Biological Crystallography, 2009)
No constants are given. Whether binding was seen depends on the method and setting. Some results given as binding are weak or reduced against the parent protein; the word gives no strength.

Biological target: RadA recombinase from Methanococcus maripaludis (Methanococcus maripaludis) (UniProt P0CW58)
Test: crystal structure; MmRadA (~1 mM) with 2 mM AMPPNP; hanging drop, 6-8% PEG 3350, 50 mM MgCl2, 50 mM Tris-HCl pH 7.9, 0.1-0.4 M monovalent salt (NaCl, KCl, RbCl or NH4Cl); space group P6_1, helical filament along the c axis (pitch 107.1-108.5 A); ATPase-active and inactive conformations; both purified

- binding: binds
B1: RadA recombinase from Methanococcus maripaludis (enzyme, UniProt P0CW58 1-322)
chain: MADVLTELPGVGPSTADKLIEGGYLDFMKIATATIGELTDIEGISEKAAAKMIMAARDLCDLGFKSGVELLKQRQSVWRLSTGSTELGTVLAGGIESQSVTEFAGMFGSGKTQIMHQTCVNLQMREKIFADLEGVVEEELEAPKAVYIDTEGTFRPERVVQMAEGAGIDGQTVLDNTFVARAYNSDMQMLFAEKIEDLIKGGNNIKLVIIDSLTSTFRNEFTGRGKLAERQQKLGRHMATLNKLADLYNCIVLVTNQVAAKPDAYFGVAEQAIGGHVVGHAATFRFFLRKSKGDKRVAKLYDSPHLPDSEAVFRITEKGIQD
